These are yes or no findings as the source states them, for the method shown. For part of these data: In cells and extracts the contact can be indirect. For part of these data: A result given as binding can be weak or reduced; the word gives no strength. For part of these data: Sequences can lack the tags named with a protein.
Tests used:
[1] = biological target: T1, YidC1 (Streptococcus mutans (endogenous in UA159)) (UniProt Q8DVX3); test: cross-linking
T1 sequence: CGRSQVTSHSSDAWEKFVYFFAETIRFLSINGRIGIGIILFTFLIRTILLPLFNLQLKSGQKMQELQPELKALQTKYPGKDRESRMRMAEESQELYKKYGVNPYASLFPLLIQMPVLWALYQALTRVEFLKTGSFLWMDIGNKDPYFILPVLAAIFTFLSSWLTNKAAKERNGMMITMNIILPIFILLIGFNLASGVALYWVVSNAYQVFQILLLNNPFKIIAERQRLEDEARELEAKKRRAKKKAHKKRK

[2] = biological target: T2, GST-YidC1CT (Streptococcus mutans UA159) (UniProt Q8DVX3); test: ELISA
T2 sequence: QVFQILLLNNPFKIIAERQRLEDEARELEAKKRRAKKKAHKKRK

[3] = biological target: T3, GST-YidC2CT (Streptococcus mutans UA159) (UniProt Q8DSP8); test: ELISA
T3 sequence: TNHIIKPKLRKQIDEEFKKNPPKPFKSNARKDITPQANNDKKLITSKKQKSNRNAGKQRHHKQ

Substance	binding [1]	binding [2]	binding [3]
SecY (from UniProt Q8DS32)	binds	–	–
SecA (tested by ELISA)	–	no binding	no binding

Reference: article doi:10.1101/2020.04.07.031013
